From patent US20090312252A1, “Antimicrobial Activity in Variants of Lacritin” (priority 2006, published 2009)
At least one peptide structure holds a part that was inferred or is arguable (an end, a ring closure or a residue). Where no end group is shown, it is not given here.

Experiments:
Assay type in all cases: cell-based
E. coli = test: Antimicrobial activity assay, colony forming units after incubation with E. coli (Example 2, FIGS. 4 and 5); conditions: FIG. 5; concentrations only shown in the figure; four hours incubation at 37°C; PB control 161×10^3 CFU/ml
Description: Purified recombinant lacritin variant proteins were assayed for antimicrobial activity by standard methods that involves an incubation period with actively growing bacteria and the protein of interest followed by plating on agar plates supplemented with growth media. The agar plates are incubated overnight and individual colonies are counted and expressed as Colony Forming Units (CFUs). The number of CFUs can be compared to the same bacteria incubated without protein.
E. coli at exponential growth (OD600=0.5) were washed twice in Phosphate Buffer (PB) diluted to a concentration of 1×10^6 cells/ml in PB and incubated with PB (no protein) or test proteins at 37° C. Samples were diluted and plated in triplicate on LB plates after four hours of incubation. Plates were grown at 37° C. overnight and counted. Colony counts were averaged and plotted as CFU/ml×10^3. The incubation volume was 0.5 ml at 25 mM NaCl.
C-25 was tested at a concentration of 53 μg/ml and N-71 was tested at various concentrations in μg/ml as shown in parentheses. pLAC is full length recombinant mature lacritin, and was tested at a concentration of 46 μg/ml. Bacteria incubated with buffer alone (the control) produced an average of 77×10^3 CFU/ml. Incubation with the lacritin variant C-25 produced an average of 79×10^3 or 103% of the control. […] The full-length recombinant lacritin protein (PLAC) produced an average of 38×10^3 CFU/ml or 49% of the control. The variant protein N-71 produced a concentration dependent antimicrobial activity that was less than 1% of the control at a concentration of 28 μg/ml.
The variant lacritin proteins were tested at the concentrations shown in parentheses in μg/ml. Bacteria incubated with buffer alone (the PB control) produced an average of 161×10^3 CFU/ml. Incubation with the lacritin variant N-24 produced an average of 108×10^3 or […] of the control. […] The variant protein N-35 produced an average of 25×10^3 CFU/ml or 16% of the control and the variant N-45 produced an average of 42×10^3 CFU/ml or 26% of the control. These variants are active in antimicrobial activity killing 84% and 74% respectively of the bacteria under the conditions tested. The variant N-55 produced an average of 2×10^3 CPU/ml or 0.01% of the control, the variant N-65 produced an average of 6×10^3 CFU/ml or 0.04% of the control, and the variant N-71 produced an average of 1×10^3 CFU/ml or 0.01% of the control.

Pseudomonas aeruginosa = test: Colony forming unit antimicrobial assay against pathogenic bacteria (Table 3); conditions: 19.2 μg/ml; 10 mM phosphate buffer, 3 hours
Description: (§1) Antimicrobial Assays. The antimicrobial activities were tested using a colony forming unit assay. E. coli (ATCC #10536) was grown in LB medium at 37° C. to an OD600 of 0.5. The cells were washed 3 times in phosphate buffer (pH 7.2) and resuspended in 1 ml of the same buffer. The cells were then diluted 1:100 using two 10 fold serial dilutions. Following dilutions, 50 μl of cells were incubated with 100 μl of sample protein and 350 μl of phosphate buffer at 37° C. In place of sample protein, 100 μl of 10 mM phosphate buffered saline (pH 7.4) was used as the control sample. Following incubation, the cells were diluted 1:10 before plating 100 μl-200 μl in quadruplicates. The plates were incubated overnight at 37° C. and colony forming units were counted. The percentage of cell death was expressed using the following equation, [1-(cells surviving peptide)/(average colonies counted from PBS control)]×100%. The LC50 is defined as the lethal concentration of peptide required to kill 50 percent of the present bacteria and was determined for each Lacritin variant by extrapolation of concentration curves.
(§2) Purified lacritin variant proteins at the concentrations shown were incubated with selected pathogenic bacteria in 10 mM phosphate buffer for 3 hours as described in the antimicrobial assay. […]

[1] = system: Staphylococcus epidermidis; test: as above; conditions: 21.6 μg/ml; 10 mM phosphate buffer, 3 hours
Description: as §1, §2

Sequence	CFU as % of the control (E. coli) [%]	average colony forming units (E. coli)	Cell Death % (Pseudomonas aeruginosa) [%]	Cell Death % [1] [%]
MKSIVEKSILLTEQALAKAGKGMHGGVPGGKQFIENGSEFAQKLLKKFSLLKPWA [Construct N-65]	0.04	6×10^3 CFU/ml	75	33
MSILLTEQALAKAGKGMHGGVPGGKQFIENGSEFAQKLLKKFSLLKPWA [Construct N-71]	0.01	1×10^3 CFU/ml	–	–
